How the values were obtained:
[1] = molecular target: T1, Lysosomal acid glucosylceramidase (Homo sapiens) (UniProt P04062)
T1 sequence (whole entry): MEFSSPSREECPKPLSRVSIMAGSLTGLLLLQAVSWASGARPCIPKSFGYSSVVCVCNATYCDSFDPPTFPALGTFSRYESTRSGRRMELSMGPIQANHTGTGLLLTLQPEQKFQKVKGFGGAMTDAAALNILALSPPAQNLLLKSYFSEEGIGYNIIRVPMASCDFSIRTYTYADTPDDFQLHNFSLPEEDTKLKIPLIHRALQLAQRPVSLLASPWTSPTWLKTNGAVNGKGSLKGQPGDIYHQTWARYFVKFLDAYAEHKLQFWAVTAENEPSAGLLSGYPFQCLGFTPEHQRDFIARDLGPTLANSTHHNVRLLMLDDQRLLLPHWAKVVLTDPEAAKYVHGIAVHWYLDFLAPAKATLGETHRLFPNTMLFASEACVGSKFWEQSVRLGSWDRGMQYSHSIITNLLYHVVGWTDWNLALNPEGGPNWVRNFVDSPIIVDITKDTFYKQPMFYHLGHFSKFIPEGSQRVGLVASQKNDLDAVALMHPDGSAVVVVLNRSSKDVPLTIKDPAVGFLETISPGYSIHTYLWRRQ

[2] = molecular target: T1, Lysosomal acid glucosylceramidase (Homo sapiens); remark: listed apart in the source
[3] = molecular target: T1, Lysosomal acid glucosylceramidase (Homo sapiens); remark: listed apart in the source
[4] = molecular target: T1, Lysosomal acid glucosylceramidase (Homo sapiens); remark: listed apart in the source
[5] = molecular target: T1, Lysosomal acid glucosylceramidase (Homo sapiens); remark: listed apart in the source
[6] = molecular target: T1, Lysosomal acid glucosylceramidase (Homo sapiens); remark: listed apart in the source
[7] = molecular target: T1, Lysosomal acid glucosylceramidase (Homo sapiens); remark: listed apart in the source

Work on `Cc1ccc(S(=O)(=O)N2CCN(c3ncnc4ccccc34)CC2)cc1` yielded a ΔTm [1] of 0.43 °C, a ΔTm [2] of 0.5 °C and a ΔTm [3] of 0.42 °C. It also gave a ΔTm [4] of 0.29 °C, a ΔTm [5] of 0.88 °C and a ΔTm [6] of -0.3 °C. The ΔTm [7] was -0.26 °C.

From ChEMBL document CHEMBL1671789, “Evaluation of quinazoline analogues as glucocerebrosidase inhibitors with chaperone activity” (J Med Chem, 2011)
